{"source": "paper PMC12221116", "about": "“Novel Quinazolinones Active against Multidrug‐Resistant Mycobacterium Tuberculosis: Synthesis, Antimicrobial Evaluation, and in Silico Exploration of Penicillin‐Binding Protein 1A as a Potential Target” (Chemmedchem, 2025)", "system": "Candida albicans ATCC 24433, CCM 8320", "assay": "Antifungal microdilution broth, quality standards", "assay_type": "cell-based", "conditions": "24 h, read-out: MIC, visual detection, Candida albicans"}
{"smiles": "C[C@@H]1[C@H](O)[C@@H](C)/C=C/C=C/C=C/C=C/C=C/C=C/C=C/[C@H](O[C@@H]2O[C@H](C)[C@@H](O)[C@H](N)[C@@H]2O)C[C@@H]2O[C@](O)(C[C@@H](O)C[C@@H](O)[C@H](O)CC[C@@H](O)C[C@@H](O)CC(=O)O[C@H]1C)C[C@H](O)[C@H]2C(=O)O", "note": "[amphotericin B]", "values": [{"measurement": "MIC", "value": 0.5, "unit": "µg/mL"}]}
